The source of these data is PMC9232578.

For assay [1], the target named is T1, PET191-FLAG (human) (UniProt Q86WW8).
T1 sequence: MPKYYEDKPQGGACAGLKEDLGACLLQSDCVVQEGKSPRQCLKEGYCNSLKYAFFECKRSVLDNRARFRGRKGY
Kind of assay: co-IP; stable interactions: mitochondria without crosslinker (DMSO vehicle), extracted in PBS, 0.4% DDM, anti-FLAG beads 4 h at 4 C, five washes in PBS 0.05% DDM, immunoblotting; for COX11-COX19 also after pre-incubation of mitochondria with 5 mM GSH.

The target of assay [2] is T2, COX11-FLAG (human) (UniProt Q9Y6N1).
T2 sequence: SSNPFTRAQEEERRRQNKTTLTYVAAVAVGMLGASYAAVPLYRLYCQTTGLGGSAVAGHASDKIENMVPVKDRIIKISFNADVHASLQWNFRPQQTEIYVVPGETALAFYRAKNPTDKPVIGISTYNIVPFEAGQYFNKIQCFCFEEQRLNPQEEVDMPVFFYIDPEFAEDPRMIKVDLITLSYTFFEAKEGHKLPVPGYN
Described as above.

The target of assay [3] is T3, COX17-FLAG (human) (UniProt Q14061).
T3 sequence: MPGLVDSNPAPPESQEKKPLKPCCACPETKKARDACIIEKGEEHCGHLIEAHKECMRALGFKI
The description is as above.

In assay [4] the target is T4, SCO2-FLAG (human) (UniProt O43819).
T4 sequence: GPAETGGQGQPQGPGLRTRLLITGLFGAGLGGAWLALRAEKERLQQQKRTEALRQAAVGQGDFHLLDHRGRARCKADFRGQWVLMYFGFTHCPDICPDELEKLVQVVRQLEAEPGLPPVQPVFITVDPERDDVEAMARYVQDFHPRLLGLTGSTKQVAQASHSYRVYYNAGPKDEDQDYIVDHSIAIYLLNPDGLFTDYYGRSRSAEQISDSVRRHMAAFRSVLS
Description: cross-linking + co-IP; transient interactions: mitochondria treated with 1 mM DSP 1.5 h at 4 C (DMSO as vehicle control), quenched with 10 mM Tris-HCl, extracted in PBS, 0.4% DDM, anti-FLAG beads, immunoblotting for 13 candidate proteins; also in KO backgrounds and after chloramphenicol treatment.

Assay [5] concerns the target T5, PET191(C30A, C41A)-FLAG (human) (UniProt Q86WW8).
T5 sequence: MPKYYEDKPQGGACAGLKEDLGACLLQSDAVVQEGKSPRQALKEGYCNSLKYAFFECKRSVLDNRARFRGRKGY
The assay is described as above.

For assay [6], the target named is T1, PET191-FLAG (human). The assay is described as above.
Assay [7] has as its target T6, COX16-FLAG (human) (UniProt Q9P0S2).
T6 sequence: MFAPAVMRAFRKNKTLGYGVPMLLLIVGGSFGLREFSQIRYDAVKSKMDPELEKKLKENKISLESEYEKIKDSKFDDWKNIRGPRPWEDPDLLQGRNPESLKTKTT
Described as above.

For assay [8], the target named is T2, COX11-FLAG (human). The assay is described as above.
Assay [9] addresses T7, SCO1-FLAG (human) (UniProt O75880).
T7 sequence: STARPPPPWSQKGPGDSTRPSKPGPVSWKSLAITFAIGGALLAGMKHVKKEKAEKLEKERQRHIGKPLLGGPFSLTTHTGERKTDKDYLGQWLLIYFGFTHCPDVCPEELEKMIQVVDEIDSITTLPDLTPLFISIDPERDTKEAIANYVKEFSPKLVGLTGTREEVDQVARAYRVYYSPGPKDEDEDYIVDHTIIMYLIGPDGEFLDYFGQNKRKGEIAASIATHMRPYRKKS
The description is as above.

In assay [10] the target is T8, COX11 C219D-FLAG (human) (UniProt Q9Y6N1).
T8 sequence: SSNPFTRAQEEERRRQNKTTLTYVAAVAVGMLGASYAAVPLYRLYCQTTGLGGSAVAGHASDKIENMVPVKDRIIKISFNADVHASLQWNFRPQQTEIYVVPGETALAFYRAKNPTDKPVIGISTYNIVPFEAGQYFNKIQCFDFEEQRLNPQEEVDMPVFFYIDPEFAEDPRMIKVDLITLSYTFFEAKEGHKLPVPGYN
Described as above.

Assay [11] deals with COX10-FLAG (human). Described as above.

Results are given in words; binding and its absence hold for the method and conditions named. In cells and extracts the contact can be indirect. For some assays here: Binding calls can cover weak binding; strength is not graded here. For some assays here: Sequences can lack the tags named with a protein.

For “COX10 (endogenous) (human (endogenous in HEK293T)) (enzyme)”, the binding result in assay [1], in assay [2], in assay [3], in [4], in assay [5] and in assay [6] was “binds” each time. Further, the binding entry in assay [7], in [8], in assay [9] and in [10] was “binds” in each case.

B1: SURF1 (protein, UniProt Q15526 1-300)
chain: MAAVAALQLGLRAAGLGRAPASAAWRSVLRVSPRPGVAWRPSRCGSSAAEASATKAEDDSFLQWVLLLIPVTAFGLGTWQVQRRKWKLNLIAELESRVLAEPVPLPADPMELKNLEYRPVKVRGCFDHSKELYMMPRTMVDPVREAREGGLISSSTQSGAYVVTPFHCTDLGVTILVNRGFVPRKKVNPETRQKGQIEGEVDLIGMVRLTETRQPFVPENNPERNHWHYRDLEAMARITGAEPIFIDANFQSTVPGGPIGGQTRVTLRNEHLQYIVTWYGLSAATSYLWFKKFLRGTPGV
As to B1, the binding result in assay [11] is listed as “no binding”.
